Test results reported in PubChem BioAssay AID493014 (National Center for Advancing Translational Sciences (NCATS), 2011).
The other results are listed elsewhere or left out. Shown are side measurements of this screen, not its main read-out; they come without a call. Most of these compounds were active or inconclusive in the main read-out, so they are no random draw. The note in brackets gives the kind of curve behind each potency; many fits are weak.

Experiment: qHTS Assay to Find Inhibitors of Chronic Active B-Cell Receptor Signaling
Conditions: ABC-DLBCL IkBa-CBG/CBR reporter, luminescence ratio (green luciferase fused to IkBa over red control in TMD8 lymphoma cells), 4 h
How it was run: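 TMD8 ABC-DLBCL cells carrying doxycycline-inducible green luciferase fused to IkappaBalpha plus unfused red luciferase were exposed to compounds (up to 46 uM) for 4 hrs at 37C. Activity came from the overlap-corrected green/red luminescence ratio.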

[1] = measured here: CBR red luminescence, cell number
[2] = measured here: IkBa-CBG green luminescence

| Structure (SMILES) | AC50 [1] | AC50 [2] |
| --- | --- | --- |
| COC(=O)c1ccc(CSc2ccc3nnc(-c4ccc(F)cc4)n3n2)o1 | 2.51 µM [falling, full curve, poor fit] | – |
| CCN(CC)S(=O)(=O)c1ccc(Cl)c(OC)c1 | 8.2 µM [rising, partial curve] | – |
| O=C(Nc1ccc(Cl)c(Cl)c1)Nc1nnc(CC2=CCCCC2)s1 | 29.1 µM [rising, single point] | – |
| Cc1ccc(C(=O)N/N=C\c2ccc[nH]2)cn1 | 16.4 µM [falling, partial curve, poor fit] | – |
| O=C(Cn1c(=O)c2c3c(sc2n(Cc2ccccc2)c1=O)CCCC3)NCCO | 0.501 µM [rising, full curve, poor fit] | – |
| Cc1ccc(N2N=C(c3ccc(Br)cc3)CCC2=O)cc1 | 14.6 µM [rising, partial curve] | – |
| CC1=C(C(=O)OC(C)C)C(C2CC=CCC2)NC(=O)N1 (stereo unspecified) | 20.6 µM [falling, single point] | – |
| COc1ccc(N(CC(=O)Nc2ccccc2C(=O)O)S(=O)(=O)c2ccc(C)c([N+](=O)[O-])c2)cc1 | 17.8 µM [rising, partial curve, poor fit] | – |
| CCOc1cc(/C=N\NC(=O)c2c(C)nc3ccccn23)ccc1O | 35.5 µM [falling, single point] | – |
| CCCOC(=O)CC1C(=O)NCCN1Cc1ccc(F)cc1 (stereo unspecified) | 2.06 µM [falling, partial curve, poor fit] | – |
| Cc1[nH]nc(N=CC2=C(O)CC(c3ccco3)CC2=O)c1-c1ccc(Cl)cc1 (stereo unspecified) | 0.731 µM [falling, full curve, poor fit] | – |
| CC(C)(C)n1nc2c(c1NC(=O)COc1ccc(Cl)cc1)CSC2 | 2.51 µM [rising, partial curve, poor fit] | – |
| O=C(N/N=C/C1CC2CCC1C2)c1ccc2c(c1)OCO2 (stereo unspecified) | 9.2 µM [falling, partial curve] | – |
| CC(C)OC(=O)C1=C(N)N2C(=O)CSC2=C(C(=O)OC(C)C)C1 | 15.8 µM [falling, partial curve, poor fit] | – |
| COc1ccc(CCNC(=O)C2CCCN2S(=O)(=O)c2ccc(F)cc2)cc1OC (stereo unspecified) | 10 µM [rising, partial curve, poor fit] | – |
| Cc1ccc(NC(=S)N(CCN2CCOCC2)Cc2cc3cc4c(cc3[nH]c2=O)OCO4)cc1 | 3.16 µM [rising, full curve, poor fit] | – |
| CCN(CC)S(=O)(=O)c1cc(NC(=O)c2ccc(Br)s2)ccc1C | 4.47 µM [falling, full curve] | – |
| COc1ccc2c(c1)c1ncn(CCc3ccccc3)c(=O)c1n2C | 16.4 µM [falling, single point] | – |
| Cc1nc(C)n(C(C)CNS(=O)(=O)c2ccc(C)c(C)c2)n1 (stereo unspecified) | 35.5 µM [falling, single point] | – |
| Cn1c2ccccc2c2cc(/C=N/NC(=O)c3cc(O)cc(O)c3)ccc21 | 25.1 µM [falling, single point] | – |
| CCOc1ccccc1NC(=S)NC(=O)CCCOc1ccc(Cl)cc1Cl | 29.1 µM [rising, single point] | – |

| Structure (SMILES) | AC50 [1] | AC50 [2] |
| --- | --- | --- |
| CCc1ccc(NC(=O)CSc2nnc(CC)c(CC)n2)cc1 | 23.1 µM [rising, single point] | – |
| O=C(CN1C(=O)S/C(=C\c2ccc(F)cc2)C1=O)Nc1cccc(S(=O)(=O)NCc2ccco2)c1 | 1.26 µM [falling, partial curve, poor fit] | – |
| C=CCn1c(SCc2csc(C)n2)nc2sc3c(c2c1=O)CCCC3 | 0.461 µM [rising, full curve, poor fit] | – |
| COc1cc(/C=C/c2ccc3cccc(OC)c3n2)c(OC(C)=O)c([N+](=O)[O-])c1 | 5.8 µM [falling, partial curve] | – |
| CCn1c(SCC(=O)Nc2ccc(N3CCOCC3)cc2)nnc1-c1ccc(OC)cc1 | 4.11 µM [falling, partial curve, poor fit] | – |
| O=C(CNC(=O)C1COc2ccccc2O1)Nc1cc(Cl)ccc1Cl (stereo unspecified) | 2.91 µM [falling, full curve] | – |
| CC(C)c1[nH]nc2c1C(c1ccc(OC(=O)c3ccco3)cc1)C(C#N)=C(N)O2 (stereo unspecified) | 14.6 µM [falling, partial curve] | – |
| CCOc1ccc(CN(C)C(=O)Cc2c[nH]c3ccccc23)cc1 | 6.31 µM [rising, single point] | – |
| CC1=CC2=NC(=O)/C(=C\c3cccn3CCOc3ccccc3)C(=N)N2O1 | 23.1 µM [falling, single point] | – |
| COc1ccc2oc(=Nc3cc(F)ccc3F)c(C(N)=O)cc2c1 | 0.1 µM [rising, full curve, poor fit] | – |
| Cc1c(Cc2ccccc2)sc(/N=C/c2ccc3ccccc3c2)c1C(N)=O | 23.1 µM [rising, single point] | – |
| Cc1ccc(NC(=O)C(C)S)cc1 (stereo unspecified) | 10 µM [falling, partial curve] | – |
| COc1ccc(CSc2ncnc3sccc23)cc1F | 35.5 µM [rising, single point] | – |
| ClCc1nc2ccccc2c2ccccc12 | 7.94 µM [rising, partial curve, poor fit] | 8.91 µM [falling, partial curve] |
| O=C(N/N=C/c1cc(Cl)c(O)c(Cl)c1)c1cc2c(ccc3ccccc32)o1 | 35.5 µM [falling, single point] | – |
| Cc1cc(=O)n(CC(=O)Nc2ccc(Cl)c(Cl)c2)c(-n2nc(C)cc2C)n1 | 35.5 µM [falling, partial curve, poor fit] | 28.2 µM [rising, partial curve, poor fit] |
| COc1ccc(Cl)cc1NC(=O)COC(=O)/C=C/c1c(C)nn(C2CCS(=O)(=O)C2)c1Cl (stereo unspecified) | 15.8 µM [falling, single point] | – |
| Brc1ccc(-c2nn3c(-c4ccccn4)nnc3s2)o1 | 7.31 µM [falling, partial curve, poor fit] | – |
| COc1ccc(NC(=O)c2oc3ccccc3c2NC(=O)C2CC2)cc1 | 0.251 µM [falling, full curve, poor fit] | – |
| O=C(CCCCCn1c(=S)[nH]c2ccc(N3CCOCC3)cc2c1=O)NC1CCN(Cc2ccccc2)CC1 | 2.82 µM [falling, full curve] | – |
| COc1ccc(/C=C2\Sc3ccc(C(=O)N4CCN(Cc5ccccc5)CC4)cc3N(C)C2=O)cc1OC | 35.5 µM [falling, single point] | – |

Single records, from the list above. Order of values: AC50 [1] | AC50 [2]
O=C(CNC(=O)C1COc2ccccc2O1)Nc1cc(Cl)ccc1Cl (stereo unspecified) as listed: 2.91 µM [falling, full curve] | –
CC(C)c1[nH]nc2c1C(c1ccc(OC(=O)c3ccco3)cc1)C(C#N)=C(N)O2 (stereo unspecified) as listed: 14.6 µM [falling, partial curve] | –

Later entries

| Structure (SMILES) | AC50 [1] | AC50 [2] |
| --- | --- | --- |
| COc1cc(NC(=O)Cc2ccccc2)nc(OC)n1 | 2.24 µM [rising, partial curve, poor fit] | – |
| COc1ccc(NC(=O)c2sc(SC)nc2N)cc1 | 20 µM [falling, single point] | – |
| CC1CCc2c(C(=O)Nc3cccc(-c4nn[nH]n4)c3)csc2C1 (stereo unspecified) | 14.1 µM [falling, single point] | – |
| CCOC(=O)c1c(N/N=C/c2ccncc2)n[nH]c1C | – | 20.6 µM [rising, partial curve, poor fit] |
| CCN(CC)CC(=O)Nc1c(Br)ccc2c1OCO2 | 11.2 µM [falling, partial curve] | – |
| O=C(Cc1n[nH]c(=O)c2ccccc12)Nc1cccc(S(=O)(=O)N2CCCCCC2)c1 | 10.3 µM [falling, partial curve, poor fit] | – |
| COc1cc2cc(C(c3nnnn3C(C)(C)C)N3CCC(C)CC3)c(=O)[nH]c2cc1OC (stereo unspecified) | 29.1 µM [falling, single point] | – |
| Cc1ccc(-n2ncc3c(NCCCN(C)C)ncnc32)cc1Cl | 5.01 µM [falling, full curve, poor fit] | – |
| O=C(/C=C/c1ccco1)NC(=S)Nc1ccccc1N1CCCC1 | 35.5 µM [falling, single point] | – |
| CC(C)CNC(=O)CCc1nc(-c2ccccc2)no1 | 35.5 µM [rising, single point] | – |
| COc1ccc(C2Sc3nncn3N2Cc2ccc(C#N)cc2)cc1 (stereo unspecified) | 11.2 µM [falling, partial curve, poor fit] | – |
| Cc1ccc2[nH]c(=O)c(CN(CCCO)C(C)c3nnnn3Cc3ccco3)cc2c1 (stereo unspecified) | 35.5 µM [falling, single point] | – |
| O=[N+]([O-])c1ccc(N2CCN(c3cccc(Cl)c3)CC2)cn1 | 0.0891 µM [falling, full curve, poor fit] | – |
| CCOC(=O)c1c(N)sc(=S)c2c1CCC2 | 3.55 µM [falling, full curve, poor fit] | – |
| Cn1c(-c2ccccc2)cnc1NCc1ccccc1 | 17.8 µM [falling, single point] | – |
| N=C1C(c2nc3ccccc3s2)=C(O)CN1NC(=O)c1ccco1 | 5.62 µM [rising, partial curve, poor fit] | – |
| CC(=O)Nc1ccc(C(=O)OCC(=O)N(c2ccccc2)C2CCCCC2)cc1 | 25.9 µM [falling, single point] | – |
| Oc1ccccc1-n1c(-c2ccccc2)ccc1-c1ccccc1 | 4.47 µM [rising, full curve, poor fit] | 35.5 µM [falling, partial curve, poor fit] |
| Cc1cc(C(=O)NNC(=O)c2cccc(C(F)(F)F)c2)no1 | 35.5 µM [falling, single point] | – |
| COc1ccc(C(=O)Nc2cccc(C(=O)N3CCCCC3)c2)cc1 | 5.01 µM [falling, partial curve, poor fit] | – |
| COCCn1c(SCc2cccnc2)nnc1-c1ccco1 | 0.461 µM [falling, partial curve, poor fit] | – |
